Assay results as given in the supplement of paper PMC12819154, “High-throughput peptide-centric local stability assay extends protein–ligand identification to membrane proteins, tissues and bacteria” (Nature Structural & Molecular Biology, 2025).
The list shows a part of the results. Most entries show no effect beyond the scatter of the controls.

By UniProt entry, the sequences of proteins in these tests, tags left out. Where a name states a change or a piece, a line headed by the entry shows the natural chain unless it says otherwise.
UniProt Q8QZR3: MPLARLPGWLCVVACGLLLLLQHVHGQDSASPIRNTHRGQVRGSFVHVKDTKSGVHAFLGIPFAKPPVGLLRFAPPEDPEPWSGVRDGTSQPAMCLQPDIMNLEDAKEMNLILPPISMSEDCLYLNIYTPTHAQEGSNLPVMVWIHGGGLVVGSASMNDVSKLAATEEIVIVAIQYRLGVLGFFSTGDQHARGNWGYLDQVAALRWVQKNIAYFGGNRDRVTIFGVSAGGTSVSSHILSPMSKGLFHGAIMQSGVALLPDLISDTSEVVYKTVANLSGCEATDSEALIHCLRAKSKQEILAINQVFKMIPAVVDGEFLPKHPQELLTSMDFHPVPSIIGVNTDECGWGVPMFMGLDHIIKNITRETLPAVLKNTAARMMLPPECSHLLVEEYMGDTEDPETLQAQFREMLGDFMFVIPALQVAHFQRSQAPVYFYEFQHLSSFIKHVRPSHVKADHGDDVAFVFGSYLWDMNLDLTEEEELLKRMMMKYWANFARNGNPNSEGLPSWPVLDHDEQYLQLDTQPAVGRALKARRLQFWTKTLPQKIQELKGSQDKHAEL
UniProt Q8K2W3: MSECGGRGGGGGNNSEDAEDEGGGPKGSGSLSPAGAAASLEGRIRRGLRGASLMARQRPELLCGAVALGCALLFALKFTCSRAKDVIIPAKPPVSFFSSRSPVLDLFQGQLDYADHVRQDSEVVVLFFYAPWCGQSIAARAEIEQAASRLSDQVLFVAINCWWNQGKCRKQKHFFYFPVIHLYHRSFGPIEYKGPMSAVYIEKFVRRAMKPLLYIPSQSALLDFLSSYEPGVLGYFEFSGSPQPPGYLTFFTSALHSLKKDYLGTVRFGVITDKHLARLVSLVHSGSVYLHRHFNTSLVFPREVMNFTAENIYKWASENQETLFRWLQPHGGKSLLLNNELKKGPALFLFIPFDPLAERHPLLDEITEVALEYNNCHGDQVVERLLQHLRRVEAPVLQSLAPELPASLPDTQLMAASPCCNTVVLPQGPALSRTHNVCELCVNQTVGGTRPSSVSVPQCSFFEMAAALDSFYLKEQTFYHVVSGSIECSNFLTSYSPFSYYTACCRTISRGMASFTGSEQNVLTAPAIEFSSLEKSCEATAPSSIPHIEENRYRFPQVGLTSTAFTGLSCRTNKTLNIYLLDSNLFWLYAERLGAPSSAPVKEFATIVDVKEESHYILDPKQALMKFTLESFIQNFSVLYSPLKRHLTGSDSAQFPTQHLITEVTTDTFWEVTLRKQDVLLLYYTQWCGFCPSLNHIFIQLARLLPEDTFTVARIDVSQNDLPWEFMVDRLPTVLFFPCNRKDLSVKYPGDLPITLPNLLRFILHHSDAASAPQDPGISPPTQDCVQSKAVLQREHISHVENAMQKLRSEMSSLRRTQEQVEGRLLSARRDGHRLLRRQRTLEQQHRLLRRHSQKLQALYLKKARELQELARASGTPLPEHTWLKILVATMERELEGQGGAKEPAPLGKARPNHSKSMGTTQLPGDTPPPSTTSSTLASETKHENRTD
UniProt Q8K4K6: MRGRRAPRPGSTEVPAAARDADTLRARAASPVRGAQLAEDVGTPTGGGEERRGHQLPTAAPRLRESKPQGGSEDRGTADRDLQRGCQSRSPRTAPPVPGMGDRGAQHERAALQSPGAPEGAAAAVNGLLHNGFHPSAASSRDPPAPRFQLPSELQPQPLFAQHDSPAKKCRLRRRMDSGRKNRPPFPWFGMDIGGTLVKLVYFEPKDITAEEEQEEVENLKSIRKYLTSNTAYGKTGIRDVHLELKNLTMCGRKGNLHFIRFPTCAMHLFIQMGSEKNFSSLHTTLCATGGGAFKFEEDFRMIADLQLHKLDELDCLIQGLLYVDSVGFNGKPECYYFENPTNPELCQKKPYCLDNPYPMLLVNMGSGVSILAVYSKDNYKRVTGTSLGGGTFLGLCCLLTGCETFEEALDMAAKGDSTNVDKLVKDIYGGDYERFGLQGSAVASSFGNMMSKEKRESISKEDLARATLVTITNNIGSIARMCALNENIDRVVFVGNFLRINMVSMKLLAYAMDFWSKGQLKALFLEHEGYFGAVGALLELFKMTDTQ
UniProt Q8R1J3: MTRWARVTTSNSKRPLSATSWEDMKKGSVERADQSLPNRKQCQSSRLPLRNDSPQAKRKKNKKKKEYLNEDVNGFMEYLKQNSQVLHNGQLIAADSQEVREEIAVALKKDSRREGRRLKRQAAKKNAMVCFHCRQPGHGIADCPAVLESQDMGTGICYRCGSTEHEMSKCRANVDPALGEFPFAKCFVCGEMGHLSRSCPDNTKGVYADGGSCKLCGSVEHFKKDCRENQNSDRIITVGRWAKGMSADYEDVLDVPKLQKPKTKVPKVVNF
UniProt Q8R0F5: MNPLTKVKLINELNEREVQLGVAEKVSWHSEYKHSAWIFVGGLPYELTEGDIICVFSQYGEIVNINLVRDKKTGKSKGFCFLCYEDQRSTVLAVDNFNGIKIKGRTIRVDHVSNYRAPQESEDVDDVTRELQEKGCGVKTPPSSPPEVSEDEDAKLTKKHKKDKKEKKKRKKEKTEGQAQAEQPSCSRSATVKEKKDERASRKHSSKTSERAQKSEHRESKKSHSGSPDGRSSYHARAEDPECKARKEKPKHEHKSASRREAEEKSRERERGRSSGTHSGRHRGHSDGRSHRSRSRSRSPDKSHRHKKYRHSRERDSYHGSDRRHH
UniProt Q8R0Z6: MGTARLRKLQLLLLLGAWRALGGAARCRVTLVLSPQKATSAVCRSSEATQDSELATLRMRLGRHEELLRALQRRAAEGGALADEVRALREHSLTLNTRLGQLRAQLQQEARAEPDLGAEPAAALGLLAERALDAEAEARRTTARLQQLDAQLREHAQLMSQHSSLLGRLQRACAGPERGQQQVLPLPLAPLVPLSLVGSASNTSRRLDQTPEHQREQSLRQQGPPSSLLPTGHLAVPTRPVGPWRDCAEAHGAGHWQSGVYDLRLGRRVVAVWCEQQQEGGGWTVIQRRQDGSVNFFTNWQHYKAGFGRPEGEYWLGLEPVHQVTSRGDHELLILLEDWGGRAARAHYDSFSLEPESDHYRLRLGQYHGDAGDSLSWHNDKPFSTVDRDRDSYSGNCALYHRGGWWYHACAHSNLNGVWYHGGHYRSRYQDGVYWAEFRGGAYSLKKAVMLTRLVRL
UniProt Q8K2J7: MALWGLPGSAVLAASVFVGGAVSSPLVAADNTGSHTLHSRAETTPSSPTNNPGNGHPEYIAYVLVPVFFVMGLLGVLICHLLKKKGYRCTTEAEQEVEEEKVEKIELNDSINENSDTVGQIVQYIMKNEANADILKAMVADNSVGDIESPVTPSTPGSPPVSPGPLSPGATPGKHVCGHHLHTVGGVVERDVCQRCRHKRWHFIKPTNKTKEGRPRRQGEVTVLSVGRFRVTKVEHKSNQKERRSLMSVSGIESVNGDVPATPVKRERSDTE
UniProt Q8R2P1: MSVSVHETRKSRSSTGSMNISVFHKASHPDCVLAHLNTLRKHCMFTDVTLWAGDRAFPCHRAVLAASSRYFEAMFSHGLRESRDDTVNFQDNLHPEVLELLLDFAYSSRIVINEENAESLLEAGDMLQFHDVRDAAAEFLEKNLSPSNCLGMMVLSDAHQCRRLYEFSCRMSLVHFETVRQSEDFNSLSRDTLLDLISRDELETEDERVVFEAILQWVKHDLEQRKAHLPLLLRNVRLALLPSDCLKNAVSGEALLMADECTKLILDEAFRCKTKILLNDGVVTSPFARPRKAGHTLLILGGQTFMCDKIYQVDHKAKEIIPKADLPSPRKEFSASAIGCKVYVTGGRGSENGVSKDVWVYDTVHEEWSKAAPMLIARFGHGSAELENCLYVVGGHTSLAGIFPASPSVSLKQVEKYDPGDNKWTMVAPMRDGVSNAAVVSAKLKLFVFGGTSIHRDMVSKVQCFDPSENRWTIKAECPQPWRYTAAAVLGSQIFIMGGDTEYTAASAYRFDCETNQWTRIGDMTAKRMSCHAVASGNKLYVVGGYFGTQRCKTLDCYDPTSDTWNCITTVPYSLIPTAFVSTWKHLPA
UniProt Q8R0X2: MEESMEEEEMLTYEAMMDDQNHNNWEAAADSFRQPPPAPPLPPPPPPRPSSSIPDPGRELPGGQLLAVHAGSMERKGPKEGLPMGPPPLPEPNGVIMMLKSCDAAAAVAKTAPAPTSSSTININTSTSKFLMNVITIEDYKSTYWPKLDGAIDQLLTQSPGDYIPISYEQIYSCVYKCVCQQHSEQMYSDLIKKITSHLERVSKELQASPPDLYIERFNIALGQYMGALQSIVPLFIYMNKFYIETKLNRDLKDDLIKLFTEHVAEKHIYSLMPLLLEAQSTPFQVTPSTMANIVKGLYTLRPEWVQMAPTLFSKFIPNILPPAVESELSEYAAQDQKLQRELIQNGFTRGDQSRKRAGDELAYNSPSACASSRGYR
UniProt Q8K382: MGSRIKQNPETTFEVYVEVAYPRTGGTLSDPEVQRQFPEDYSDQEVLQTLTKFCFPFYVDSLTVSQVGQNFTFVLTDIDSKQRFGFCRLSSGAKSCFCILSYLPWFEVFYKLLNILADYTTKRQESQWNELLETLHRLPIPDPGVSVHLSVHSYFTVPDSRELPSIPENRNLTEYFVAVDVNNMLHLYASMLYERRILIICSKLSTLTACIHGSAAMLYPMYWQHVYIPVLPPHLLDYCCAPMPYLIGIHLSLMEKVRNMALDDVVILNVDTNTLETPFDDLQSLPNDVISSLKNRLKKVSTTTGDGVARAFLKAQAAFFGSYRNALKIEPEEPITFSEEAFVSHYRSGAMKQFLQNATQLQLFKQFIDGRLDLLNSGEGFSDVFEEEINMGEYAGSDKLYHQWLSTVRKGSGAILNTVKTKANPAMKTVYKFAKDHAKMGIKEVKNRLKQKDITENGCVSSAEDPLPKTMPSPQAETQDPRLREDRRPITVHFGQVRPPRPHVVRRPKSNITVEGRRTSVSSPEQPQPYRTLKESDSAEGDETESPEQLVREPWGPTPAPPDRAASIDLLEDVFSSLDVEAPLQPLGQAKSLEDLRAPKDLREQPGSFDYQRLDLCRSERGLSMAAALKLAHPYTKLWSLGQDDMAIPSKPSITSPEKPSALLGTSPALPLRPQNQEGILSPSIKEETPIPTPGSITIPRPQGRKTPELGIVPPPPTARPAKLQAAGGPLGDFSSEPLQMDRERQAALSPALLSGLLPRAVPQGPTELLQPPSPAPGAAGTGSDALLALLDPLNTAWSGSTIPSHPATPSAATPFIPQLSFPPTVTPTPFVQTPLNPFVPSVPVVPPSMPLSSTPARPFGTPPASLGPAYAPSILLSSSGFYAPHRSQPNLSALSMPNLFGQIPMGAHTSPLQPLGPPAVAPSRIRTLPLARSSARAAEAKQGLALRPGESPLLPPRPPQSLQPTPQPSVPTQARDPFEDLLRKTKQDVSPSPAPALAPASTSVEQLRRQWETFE
UniProt Q8R0T2: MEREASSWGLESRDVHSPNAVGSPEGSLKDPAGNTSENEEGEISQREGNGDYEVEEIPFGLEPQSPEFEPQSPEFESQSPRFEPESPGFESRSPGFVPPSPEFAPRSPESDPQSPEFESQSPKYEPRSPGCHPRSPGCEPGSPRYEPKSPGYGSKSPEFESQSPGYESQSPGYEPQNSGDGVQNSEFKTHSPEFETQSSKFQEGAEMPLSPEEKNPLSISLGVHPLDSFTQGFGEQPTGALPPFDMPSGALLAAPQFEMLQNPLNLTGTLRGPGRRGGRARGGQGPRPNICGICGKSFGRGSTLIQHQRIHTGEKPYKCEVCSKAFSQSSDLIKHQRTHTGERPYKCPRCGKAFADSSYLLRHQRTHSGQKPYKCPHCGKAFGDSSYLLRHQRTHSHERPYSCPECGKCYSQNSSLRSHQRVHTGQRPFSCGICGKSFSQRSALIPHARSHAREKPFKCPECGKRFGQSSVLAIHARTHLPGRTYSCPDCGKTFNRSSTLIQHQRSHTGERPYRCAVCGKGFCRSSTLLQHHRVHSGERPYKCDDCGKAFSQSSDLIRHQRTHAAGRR
UniProt Q8R010: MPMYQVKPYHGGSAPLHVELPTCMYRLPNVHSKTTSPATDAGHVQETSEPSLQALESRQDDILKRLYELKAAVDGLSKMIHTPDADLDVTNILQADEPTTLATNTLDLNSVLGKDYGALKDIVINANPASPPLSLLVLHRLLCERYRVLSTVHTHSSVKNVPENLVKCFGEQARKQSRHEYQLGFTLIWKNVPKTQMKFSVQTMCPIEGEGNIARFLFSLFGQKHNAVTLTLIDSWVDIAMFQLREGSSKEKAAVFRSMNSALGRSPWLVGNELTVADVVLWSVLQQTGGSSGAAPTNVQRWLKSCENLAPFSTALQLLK
UniProt Q8K221: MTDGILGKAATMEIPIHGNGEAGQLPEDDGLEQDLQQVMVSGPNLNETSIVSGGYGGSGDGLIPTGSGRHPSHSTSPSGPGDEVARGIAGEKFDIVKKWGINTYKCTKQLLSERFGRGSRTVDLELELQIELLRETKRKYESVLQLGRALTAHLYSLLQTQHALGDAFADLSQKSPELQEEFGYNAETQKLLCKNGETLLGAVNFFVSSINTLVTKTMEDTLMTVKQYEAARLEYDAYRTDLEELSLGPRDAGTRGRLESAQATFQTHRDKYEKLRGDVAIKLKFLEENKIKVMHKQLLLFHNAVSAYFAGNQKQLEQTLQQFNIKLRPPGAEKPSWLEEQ

Compound: CN[C@@H]1C[C@H]2O[C@@](C)([C@@H]1OC)n1c3ccccc3c3c4c(c5c6ccccc6n2c5c31)C(=O)NC4 [staurosporine]
Assay: log2 fold change of tryptic peptide abundance, ligand vs vehicle (limited proteolysis) (log2 ratio); higher = more trypsin-susceptible (destabilized)
Conditions: ligand concentration: 20 uM; sample: mouse liver crude lysate; replicate design: treated separately

Q: For “UniProt Q8QZR3 (peptide sequence: ETLPAVLK, peptide start residue: 365)”, which log2 fold change is on record?
A: The log2 fold change was -0.302.

Q: Which log2 fold change does the source give for “UniProt Q8K2W3 (peptide sequence: EHISHVENAMQK, peptide start residue: 795)” here?
A: Its log2 fold change is -0.448.

Q: With “UniProt Q8K2F3 (peptide sequence: LLLPVPHLPTIR, peptide start residue: 5)” as the target, how does the log2 fold change read?
A: Its log2 fold change is 0.319.

Q: “UniProt Q8K2H3 (peptide sequence: AERHLPEDIKK, peptide start residue: 625)” was tested. Which log2 fold change did it give?
A: The log2 fold change was 0.104.

Q: With “UniProt Q8K2M0 (peptide sequence: ETDPKDKIDIGLPPPR, peptide start residue: 81)” as the target, how does the log2 fold change read?
A: Its log2 fold change is -0.305.

Q: “UniProt Q8QZV7 (peptide sequence: SVLLEQPR, peptide start residue: 359)” was tested. Which log2 fold change did it give?
A: The log2 fold change was -0.577.

Q: How did the log2 fold change turn out when “UniProt Q8K310 (peptide sequence: GPLPLSSQHR, peptide start residue: 93)” was run?
A: Its log2 fold change is 0.353.

Q: How did the log2 fold change turn out when “UniProt Q8K215 (peptide sequence: DLEIIRR, peptide start residue: 62)” was run?
A: The log2 fold change was 0.867.

Q: With “UniProt Q8K2Q7 (peptide sequence: GPGPTAKPSGHLFFR, peptide start residue: 296)” as the target, how does the log2 fold change read?
A: Its log2 fold change is -0.777.

Q: Which log2 fold change does the source give for “UniProt Q8R1Q9 (peptide sequence: HIPTEAVK, peptide start residue: 254)” here?
A: Its log2 fold change is -0.23.

Q: How did the log2 fold change turn out when “UniProt Q8K4K6 (peptide sequence: VVFVGNFLR, peptide start residue: 492)” was run?
A: Its log2 fold change is -0.363.

Q: Which log2 fold change does the source give for “UniProt Q8R1J3 (peptide sequence: RPLSATSWEDMKK, peptide start residue: 14)” here?
A: The log2 fold change was 0.216.

Q: Which log2 fold change does the source give for “UniProt Q8R0F5 (peptide sequence: VKLINELNER, peptide start residue: 7)” here?
A: The log2 fold change was -0.871.

Q: For “UniProt Q8R0L1 (peptide sequence: LKGAPPSHYYESFLEK, peptide start residue: 13)”, which log2 fold change is on record?
A: Its log2 fold change is -0.193.

Q: For “UniProt Q8R1G1 (peptide sequence: FSLAAFKR, peptide start residue: 191)”, which log2 fold change is on record?
A: The log2 fold change was -0.209.

Q: Which log2 fold change does the source give for “UniProt Q8R0Z6 (peptide sequence: AQLQQEAR, peptide start residue: 104)” here?
A: The log2 fold change was -0.165.

Q: How did the log2 fold change turn out when “UniProt Q8K297 (peptide sequence: TPAYIPIR, peptide start residue: 209)” was run?
A: The log2 fold change was -0.118.

Q: Which log2 fold change does the source give for “UniProt Q8K2J7 (peptide sequence: NEANADILK, peptide start residue: 128)” here?
A: Its log2 fold change is -0.227.

Q: With “UniProt Q8R2P1 (peptide sequence: QSEDFNSLSR, peptide start residue: 181)” as the target, how does the log2 fold change read?
A: Its log2 fold change is 0.258.

Q: “UniProt Q8R0X2 (peptide sequence: ELIQNGFTR, peptide start residue: 342)” was tested. Which log2 fold change did it give?
A: Its log2 fold change is -0.175.

Q: How did the log2 fold change turn out when “UniProt Q8K296 (peptide sequence: FSGKDMLPVAPEPR, peptide start residue: 872)” was run?
A: Its log2 fold change is -0.414.

Q: With “UniProt Q8K382 (peptide sequence: KTPELGIVPPPPTARPAK, peptide start residue: 706)” as the target, how does the log2 fold change read?
A: The log2 fold change was -0.0988.

Q: “UniProt Q8R0T2 (peptide sequence: CYSQNSSLR, peptide start residue: 409)” was tested. Which log2 fold change did it give?
A: The log2 fold change was 0.459.

Q: Which log2 fold change does the source give for “UniProt Q8R010 (peptide sequence: VLSTVHTHSSVK, peptide start residue: 148)” here?
A: Its log2 fold change is -0.185.

Q: How did the log2 fold change turn out when “UniProt Q8K221 (peptide sequence: LRPPGAEKPSWLEEQ, peptide start residue: 327)” was run?
A: Its log2 fold change is -0.725.

Q: How did the log2 fold change turn out when “UniProt Q8K3W0 (peptide sequence: VGLDATNCLR, peptide start residue: 27)” was run?
A: Its log2 fold change is -0.159.

Q: For “UniProt Q8R180 (peptide sequence: YLLQDTWLEKK, peptide start residue: 262)”, which log2 fold change is on record?
A: Its log2 fold change is 0.295.

Q: With “UniProt Q8R0G9 (peptide sequence: GSESMVFETTTKNETVAHEDKTK, peptide start residue: 497)” as the target, how does the log2 fold change read?
A: Its log2 fold change is -0.521.

Q: How did the log2 fold change turn out when “UniProt Q8K4L0 (peptide sequence: ALILSPTR, peptide start residue: 168)” was run?
A: The log2 fold change was 0.357.

Q: “UniProt Q8K2P1 (peptide sequence: QEMVNLR, peptide start residue: 95)” was tested. Which log2 fold change did it give?
A: The log2 fold change was -0.083.

Q: For “UniProt Q8R088 (peptide sequence: IYLEPPTMR, peptide start residue: 89)”, which log2 fold change is on record?
A: Its log2 fold change is -0.239.
